{"source": "PubChem BioAssay AID1224827 – NIAID – 2016", "purpose": "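Retest primary hits on a TNF reporter with six siRNAs per gene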 (follow-up of hits)", "cells": "RAW264.7 G9 mouse macrophage reporter clone", "reagents": "single siRNA against mouse genes, 100 nM siRNA", "time to read-out": "siRNA for 2 days, then LPS about 16 h", "conditions": "bacterial lipopolysaccharide (LPS), 10 ng/ml, cells fixed after overnight (about 16 h) stimulation", "read-out": "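TNF promoter reporter red fluorescence in nuclei, background subtracted, normalised per plate and to non-targeting control siRNA, as z-scores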", "reading the numbers": "TNF reporter z-score, mean: higher = stronger Tnf promoter reporter signal; gene median z, three same-vendor siRNAs: higher = stronger Tnf reporter signal for the gene", "active means": "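An siRNA is called active when its mean z-score over replicates is at least +2 or at most -2; control wells get no call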", "note": "Here is a random part of about 3,800 reagents tested. Over the whole deposit, about 2,200 (57%) got an active call. 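Active means a strong reporter change in either direction; calls are per siRNA, not per gene; qiagen siRNAs gave weaker effects.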 Reagents against one gene are numbered here. Not all columns of the deposit are shown."}
{"gene": "Atg4d (autophagy related 4D, cysteine peptidase)", "reagent no.": 1, "TNF reporter z-score, mean": -1.04, "gene median z, three same-vendor siRNAs": -3.8, "activity call": "inactive"}
{"gene": "Atg4d (autophagy related 4D, cysteine peptidase)", "reagent no.": 2, "TNF reporter z-score, mean": -3.8, "gene median z, three same-vendor siRNAs": -3.8, "activity call": "active"}
{"gene": "Atg4d (autophagy related 4D, cysteine peptidase)", "reagent no.": 3, "TNF reporter z-score, mean": -4.76, "gene median z, three same-vendor siRNAs": -3.8, "activity call": "active"}
{"gene": "Atg4d (autophagy related 4D, cysteine peptidase)", "reagent no.": 4, "TNF reporter z-score, mean": 0.566, "gene median z, three same-vendor siRNAs": -1.19, "activity call": "inactive"}
{"gene": "Atg4d (autophagy related 4D, cysteine peptidase)", "reagent no.": 5, "TNF reporter z-score, mean": -0.972, "gene median z, three same-vendor siRNAs": -1.19, "activity call": "inactive"}
{"gene": "Atg4d (autophagy related 4D, cysteine peptidase)", "reagent no.": 6, "TNF reporter z-score, mean": -1.82, "gene median z, three same-vendor siRNAs": -1.19, "activity call": "inactive"}
{"gene": "Gabrb1 (gamma-aminobutyric acid type A receptor subunit beta 1)", "reagent no.": 1, "TNF reporter z-score, mean": 4.18, "gene median z, three same-vendor siRNAs": -1.76, "activity call": "active"}
{"gene": "Gabrb1 (gamma-aminobutyric acid type A receptor subunit beta 1)", "reagent no.": 2, "TNF reporter z-score, mean": -1.76, "gene median z, three same-vendor siRNAs": -1.76, "activity call": "inactive"}
{"gene": "Gabrb1 (gamma-aminobutyric acid type A receptor subunit beta 1)", "reagent no.": 3, "TNF reporter z-score, mean": -2.61, "gene median z, three same-vendor siRNAs": -1.76, "activity call": "active"}
{"gene": "Gabrb1 (gamma-aminobutyric acid type A receptor subunit beta 1)", "reagent no.": 4, "TNF reporter z-score, mean": 2.88, "gene median z, three same-vendor siRNAs": 2.43, "activity call": "active"}
{"gene": "Gabrb1 (gamma-aminobutyric acid type A receptor subunit beta 1)", "reagent no.": 5, "TNF reporter z-score, mean": 2.8, "gene median z, three same-vendor siRNAs": 2.43, "activity call": "active"}
{"gene": "Gabrb1 (gamma-aminobutyric acid type A receptor subunit beta 1)", "reagent no.": 6, "TNF reporter z-score, mean": 2.07, "gene median z, three same-vendor siRNAs": 2.43, "activity call": "active"}
{"gene": "Krt6b (keratin 6B)", "reagent no.": 1, "TNF reporter z-score, mean": 4.27, "gene median z, three same-vendor siRNAs": 0.844, "activity call": "active"}
{"gene": "Krt6b (keratin 6B)", "reagent no.": 2, "TNF reporter z-score, mean": 0.782, "gene median z, three same-vendor siRNAs": 0.844, "activity call": "inactive"}
{"gene": "Krt6b (keratin 6B)", "reagent no.": 3, "TNF reporter z-score, mean": -1.11, "gene median z, three same-vendor siRNAs": 0.844, "activity call": "inactive"}
{"gene": "Sv2a (synaptic vesicle glycoprotein 2a)", "reagent no.": 1, "TNF reporter z-score, mean": 1.28, "gene median z, three same-vendor siRNAs": -0.602, "activity call": "inactive"}
{"gene": "Sv2a (synaptic vesicle glycoprotein 2a)", "reagent no.": 2, "TNF reporter z-score, mean": 0.488, "gene median z, three same-vendor siRNAs": -0.602, "activity call": "inactive"}
{"gene": "Sv2a (synaptic vesicle glycoprotein 2a)", "reagent no.": 3, "TNF reporter z-score, mean": -4.77, "gene median z, three same-vendor siRNAs": -0.602, "activity call": "active"}
{"gene": "Sv2a (synaptic vesicle glycoprotein 2a)", "reagent no.": 4, "TNF reporter z-score, mean": 2.52, "gene median z, three same-vendor siRNAs": 2.45, "activity call": "active"}
{"gene": "Sv2a (synaptic vesicle glycoprotein 2a)", "reagent no.": 5, "TNF reporter z-score, mean": 2.24, "gene median z, three same-vendor siRNAs": 2.45, "activity call": "active"}
{"gene": "Sv2a (synaptic vesicle glycoprotein 2a)", "reagent no.": 6, "TNF reporter z-score, mean": 1.97, "gene median z, three same-vendor siRNAs": 2.45, "activity call": "inactive"}
{"gene": "Rbl2 (RB transcriptional corepressor like 2)", "reagent no.": 1, "TNF reporter z-score, mean": -0.467, "gene median z, three same-vendor siRNAs": -1.72, "activity call": "inactive"}
{"gene": "Rbl2 (RB transcriptional corepressor like 2)", "reagent no.": 2, "TNF reporter z-score, mean": -1.84, "gene median z, three same-vendor siRNAs": -1.72, "activity call": "inactive"}
{"gene": "Rbl2 (RB transcriptional corepressor like 2)", "reagent no.": 3, "TNF reporter z-score, mean": -2.85, "gene median z, three same-vendor siRNAs": -1.72, "activity call": "active"}
{"gene": "Rbl2 (RB transcriptional corepressor like 2)", "reagent no.": 4, "TNF reporter z-score, mean": 3.34, "gene median z, three same-vendor siRNAs": 1.19, "activity call": "active"}
{"gene": "Rbl2 (RB transcriptional corepressor like 2)", "reagent no.": 5, "TNF reporter z-score, mean": 1.12, "gene median z, three same-vendor siRNAs": 1.19, "activity call": "inactive"}
{"gene": "Rbl2 (RB transcriptional corepressor like 2)", "reagent no.": 6, "TNF reporter z-score, mean": 0.414, "gene median z, three same-vendor siRNAs": 1.19, "activity call": "inactive"}
{"gene": "Rufy3 (RUN and FYVE domain containing 3)", "reagent no.": 1, "TNF reporter z-score, mean": 3.05, "gene median z, three same-vendor siRNAs": -2.44, "activity call": "active"}
{"gene": "Rufy3 (RUN and FYVE domain containing 3)", "reagent no.": 2, "TNF reporter z-score, mean": -2.63, "gene median z, three same-vendor siRNAs": -2.44, "activity call": "active"}
{"gene": "Rufy3 (RUN and FYVE domain containing 3)", "reagent no.": 3, "TNF reporter z-score, mean": -3.03, "gene median z, three same-vendor siRNAs": -2.44, "activity call": "active"}
{"gene": "Rufy3 (RUN and FYVE domain containing 3)", "reagent no.": 4, "TNF reporter z-score, mean": 3.41, "gene median z, three same-vendor siRNAs": 0.762, "activity call": "active"}
{"gene": "Rufy3 (RUN and FYVE domain containing 3)", "reagent no.": 5, "TNF reporter z-score, mean": 3.08, "gene median z, three same-vendor siRNAs": 0.762, "activity call": "active"}
{"gene": "Rufy3 (RUN and FYVE domain containing 3)", "reagent no.": 6, "TNF reporter z-score, mean": -1.59, "gene median z, three same-vendor siRNAs": 0.762, "activity call": "inactive"}
